The results in this text go back to publication PMC6497644.

Assay [1] has as its target T1, TMEM33-HA (transmembrane protein 33, HA-tagged), transiently expressed (UniProt Q9CR67).
T1 sequence: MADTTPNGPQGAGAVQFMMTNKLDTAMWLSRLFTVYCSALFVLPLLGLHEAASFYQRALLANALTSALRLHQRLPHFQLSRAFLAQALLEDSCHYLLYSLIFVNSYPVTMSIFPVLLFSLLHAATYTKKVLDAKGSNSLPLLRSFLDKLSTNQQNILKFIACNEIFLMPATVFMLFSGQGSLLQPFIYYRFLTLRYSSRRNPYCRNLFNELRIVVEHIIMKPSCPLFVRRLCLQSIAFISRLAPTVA
The assay is described as follows: co-IP; PCT cells transfected with 2.5 ug of each plasmid, lysed 48-72 h later in NEB lysis buffer (150 mM NaCl, 10 mM Tris pH 7.4, 1% Triton X-100, 0.5% NP40); anti-HA 3F10 cross-linked to Protein A or G magnetic beads; Western blot. (In western blotting, separated proteins are transferred to a membrane and probed.)

Assay [2] has as its target T2, TMEM33 C term (amino acids 197–248), in frame with LexA (UniProt Q9CR67).
T2 sequence: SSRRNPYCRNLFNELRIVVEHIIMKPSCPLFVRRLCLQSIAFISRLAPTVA
In words: two-hybrid; LexA/B42 Grow'n'Glow system, yeast EGY48; bait TMEM33 terminus in frame with LexA, prey PC2 terminus in frame with B42; growth on -HIS-TRP-URA-LEU + galactose and GFP.

Assay [3] concerns the target T3, TMEM33-HA, conditionally expressed in a stably complemented TMEM33-/- PCT cell line (UniProt Q9CR67).
T3 sequence: T1 sequence
The assay is described as follows: co-IP; stably complemented TMEM33-/- PCT cell lines expressing TMEM33-HA or HA-TMEM33 on DOX induction; anti-HA antibody against control rat IgG; native PC2 detected.

For assay [4], the target named is T4, HA-TMEM33, conditionally expressed in a stably complemented TMEM33-/- PCT cell line (UniProt Q9CR67).
T4 sequence: T1 sequence
The description is as above.

Assay [5] addresses T5, HA-PC2 (polycystin-2, HA-tagged) (UniProt Q13563).
T5 sequence: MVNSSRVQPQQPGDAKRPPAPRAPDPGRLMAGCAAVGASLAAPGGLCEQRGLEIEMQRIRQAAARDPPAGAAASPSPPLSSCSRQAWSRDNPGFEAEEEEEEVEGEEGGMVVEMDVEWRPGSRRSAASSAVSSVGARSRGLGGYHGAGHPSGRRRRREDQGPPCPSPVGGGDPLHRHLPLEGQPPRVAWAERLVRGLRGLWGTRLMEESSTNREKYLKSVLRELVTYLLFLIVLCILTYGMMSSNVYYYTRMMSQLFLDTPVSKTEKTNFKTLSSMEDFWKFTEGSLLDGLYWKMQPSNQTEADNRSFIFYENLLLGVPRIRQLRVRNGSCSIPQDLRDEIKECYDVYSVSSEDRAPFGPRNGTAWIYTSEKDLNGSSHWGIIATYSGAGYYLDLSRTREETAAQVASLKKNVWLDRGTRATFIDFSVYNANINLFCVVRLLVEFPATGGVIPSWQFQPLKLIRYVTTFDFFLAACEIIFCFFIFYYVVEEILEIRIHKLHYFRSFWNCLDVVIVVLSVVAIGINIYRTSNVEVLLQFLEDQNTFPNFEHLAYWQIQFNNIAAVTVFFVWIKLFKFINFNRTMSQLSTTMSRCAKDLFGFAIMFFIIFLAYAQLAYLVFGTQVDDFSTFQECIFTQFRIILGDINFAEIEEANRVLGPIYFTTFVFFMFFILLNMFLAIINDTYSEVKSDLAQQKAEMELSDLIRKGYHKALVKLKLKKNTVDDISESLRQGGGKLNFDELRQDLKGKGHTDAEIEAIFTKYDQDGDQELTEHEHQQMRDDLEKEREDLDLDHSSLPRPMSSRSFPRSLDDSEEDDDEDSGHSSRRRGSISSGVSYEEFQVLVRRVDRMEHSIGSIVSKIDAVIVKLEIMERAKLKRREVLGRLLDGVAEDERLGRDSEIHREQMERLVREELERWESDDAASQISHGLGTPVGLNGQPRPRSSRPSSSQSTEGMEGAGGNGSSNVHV
The assay is described as follows: co-IP; PCT cells transfected with 2.5 ug of each plasmid, lysed 48-72 h later in NEB lysis buffer (150 mM NaCl, 10 mM Tris pH 7.4, 1% Triton X-100, 0.5% NP40); anti-HA 3F10 cross-linked to Protein A or G magnetic beads; Western blot.

Assay [6] addresses T6, HA-742X (PC2-742X, pathologic PC2 deletion mutant, HA-tagged) (UniProt Q13563).
T6 sequence: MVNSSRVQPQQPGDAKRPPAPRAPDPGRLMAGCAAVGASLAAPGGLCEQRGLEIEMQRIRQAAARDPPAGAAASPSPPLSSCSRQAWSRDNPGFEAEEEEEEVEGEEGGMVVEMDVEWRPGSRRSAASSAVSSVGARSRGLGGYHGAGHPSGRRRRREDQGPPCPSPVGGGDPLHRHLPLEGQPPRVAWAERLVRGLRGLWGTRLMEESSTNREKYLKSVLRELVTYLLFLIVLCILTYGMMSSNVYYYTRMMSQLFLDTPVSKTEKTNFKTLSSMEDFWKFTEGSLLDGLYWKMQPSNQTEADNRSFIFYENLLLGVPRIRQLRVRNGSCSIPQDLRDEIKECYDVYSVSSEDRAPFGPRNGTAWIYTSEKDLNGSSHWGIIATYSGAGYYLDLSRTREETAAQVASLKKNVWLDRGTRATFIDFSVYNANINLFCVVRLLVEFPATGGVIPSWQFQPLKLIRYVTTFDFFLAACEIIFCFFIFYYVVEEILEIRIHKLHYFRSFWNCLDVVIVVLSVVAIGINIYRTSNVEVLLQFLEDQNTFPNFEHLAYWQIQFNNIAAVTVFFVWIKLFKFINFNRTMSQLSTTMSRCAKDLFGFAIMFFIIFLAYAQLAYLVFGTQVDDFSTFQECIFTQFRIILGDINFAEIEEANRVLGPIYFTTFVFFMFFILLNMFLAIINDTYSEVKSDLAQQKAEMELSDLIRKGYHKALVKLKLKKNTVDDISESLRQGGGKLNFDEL
Described as above.

No constants are given. Whether binding was seen depends on the method and setting. For some of these results: Binding seen in cells or lysates may run through a third protein. Some entries that bind do so weakly or less than the wild type. For some of these results: Tags and fused reporters may be left off the sequences shown.

B1: Myc-742X (PC2-742X, pathologic PC2 deletion mutant, Myc-tagged) (domain or fragment, UniProt Q13563 1-741)
chain: T6 sequence
B1: the binding entry in assay [1] is “binds”.

B2: PC2 N term (amino acids 1–222), in frame with B42 (domain or fragment, UniProt Q13563 1-222)
chain: MVNSSRVQPQQPGDAKRPPAPRAPDPGRLMAGCAAVGASLAAPGGLCEQRGLEIEMQRIRQAAARDPPAGAAASPSPPLSSCSRQAWSRDNPGFEAEEEEEEVEGEEGGMVVEMDVEWRPGSRRSAASSAVSSVGARSRGLGGYHGAGHPSGRRRRREDQGPPCPSPVGGGDPLHRHLPLEGQPPRVAWAERLVRGLRGLWGTRLMEESSTNREKYLKSVLR
Turning to B2, the binding entry in assay [2] is “binds”.

B3: native polycystin-2 (PC2) of PCT cells (protein, UniProt O35245 1-966)
chain: MVNSRRVQPQPPGDAGRSPAPRASGPGRLVAGGAGLAVPGGLGEQRGLEIEMERIRQAAARDPPAGASASPSPPLSSCSRQAWSRDNPGFEAEEDDDDDEVEGEEGGMVVEMDVEWRPGSRRSASSSAVSSVGARGRGLGSYRGAAHLSGRRRRLEDQGAQCPSPAGGGDPLHRHLPLEGQPPRVAWAERLVRGLRGLWGTRLMEESNANREKYLKSVLRELVTYLFFLVVLCILTYGMMSSNVYYYTRTLSQLFIDTPVSKTEKTNFKTLSSMEDFWKFTEGSFLDGLYWKAQTSNHTQADNRSFIFYENLLLGVPRLRQLRVRNGSCSIPQDLRDEIKECYDVYSVSSEDRAPFGPRNGTAWMYTSEKELNGSSHWGIIASYSGAGYYLDLSRTREETAAQLAGLRRNFWLDRGTRAAFIDFSVYNANINLFCVVRLLAEFPATGGVVPSWQFQPVKLIRYVTAFDFFLAACEIIFCFFIIYYVVEEILEIRIHRLSYFRSFWNCLDVVIVVLSVVAMVINIYRMSNAEGLLQFLEDQNSFPNFEHVAYWQIQFNNISAVMVFLVWIKLFKFINFNRTMSQLSTTMSRCAKDLFGFTIMFSIIFLAYAQLAYLVFGTQVDDFSTFQECIFTQFRIILGDINFAEIEEANRVLGPLYFTTFVFFMFFILLNMFLAIINDSYSEVKSDLAQQKAEMELSDLIRKGCQKALVKLKLKRNTVDAISESLRQGGGKLNFDELRQDLKGKGHTDAEIEAIFTKYDQDGDQELTEREHQQMRDDLEKEREDLDLEHSSLPRPMSSRSFPRSLDDSEEEDDEDSGHSSRRRGSISSGVSYEEFQVLVRRVDRMEHSIGSIVSKIDAVIVKLEIMERAKLKRREVLGRLLDGVAEDARLGRDSEIHREQMERLVREELERWESDDAASQTGHGVSTQVGLGGQPHPRNPRPPSSQSAEGLEGGGGNGSANVHA
For the molecule B3, the binding entry in assay [3] and in assay [4] was “binds” in each case.

B4: Myc-PC2 (polycystin-2, Myc-tagged) (protein, UniProt Q13563 1-968)
chain: T5 sequence
In the case of B4, the binding entry in assay [1] is given as “binds”.

B5: Myc-TMEM33 (transmembrane protein 33, Myc-tagged) (protein, UniProt Q9CR67 1-247)
chain: T1 sequence
Take B5: the binding entry in assay [5] and in assay [6] was “binds” in each case.
